This passage reports binding results from article doi:10.1101/2020.04.22.053561.

The target of experiment [1] is T1, BCL9-GFP (pCDNA3.1-BCL9-GFP) (UniProt O00512).
T1 sequence: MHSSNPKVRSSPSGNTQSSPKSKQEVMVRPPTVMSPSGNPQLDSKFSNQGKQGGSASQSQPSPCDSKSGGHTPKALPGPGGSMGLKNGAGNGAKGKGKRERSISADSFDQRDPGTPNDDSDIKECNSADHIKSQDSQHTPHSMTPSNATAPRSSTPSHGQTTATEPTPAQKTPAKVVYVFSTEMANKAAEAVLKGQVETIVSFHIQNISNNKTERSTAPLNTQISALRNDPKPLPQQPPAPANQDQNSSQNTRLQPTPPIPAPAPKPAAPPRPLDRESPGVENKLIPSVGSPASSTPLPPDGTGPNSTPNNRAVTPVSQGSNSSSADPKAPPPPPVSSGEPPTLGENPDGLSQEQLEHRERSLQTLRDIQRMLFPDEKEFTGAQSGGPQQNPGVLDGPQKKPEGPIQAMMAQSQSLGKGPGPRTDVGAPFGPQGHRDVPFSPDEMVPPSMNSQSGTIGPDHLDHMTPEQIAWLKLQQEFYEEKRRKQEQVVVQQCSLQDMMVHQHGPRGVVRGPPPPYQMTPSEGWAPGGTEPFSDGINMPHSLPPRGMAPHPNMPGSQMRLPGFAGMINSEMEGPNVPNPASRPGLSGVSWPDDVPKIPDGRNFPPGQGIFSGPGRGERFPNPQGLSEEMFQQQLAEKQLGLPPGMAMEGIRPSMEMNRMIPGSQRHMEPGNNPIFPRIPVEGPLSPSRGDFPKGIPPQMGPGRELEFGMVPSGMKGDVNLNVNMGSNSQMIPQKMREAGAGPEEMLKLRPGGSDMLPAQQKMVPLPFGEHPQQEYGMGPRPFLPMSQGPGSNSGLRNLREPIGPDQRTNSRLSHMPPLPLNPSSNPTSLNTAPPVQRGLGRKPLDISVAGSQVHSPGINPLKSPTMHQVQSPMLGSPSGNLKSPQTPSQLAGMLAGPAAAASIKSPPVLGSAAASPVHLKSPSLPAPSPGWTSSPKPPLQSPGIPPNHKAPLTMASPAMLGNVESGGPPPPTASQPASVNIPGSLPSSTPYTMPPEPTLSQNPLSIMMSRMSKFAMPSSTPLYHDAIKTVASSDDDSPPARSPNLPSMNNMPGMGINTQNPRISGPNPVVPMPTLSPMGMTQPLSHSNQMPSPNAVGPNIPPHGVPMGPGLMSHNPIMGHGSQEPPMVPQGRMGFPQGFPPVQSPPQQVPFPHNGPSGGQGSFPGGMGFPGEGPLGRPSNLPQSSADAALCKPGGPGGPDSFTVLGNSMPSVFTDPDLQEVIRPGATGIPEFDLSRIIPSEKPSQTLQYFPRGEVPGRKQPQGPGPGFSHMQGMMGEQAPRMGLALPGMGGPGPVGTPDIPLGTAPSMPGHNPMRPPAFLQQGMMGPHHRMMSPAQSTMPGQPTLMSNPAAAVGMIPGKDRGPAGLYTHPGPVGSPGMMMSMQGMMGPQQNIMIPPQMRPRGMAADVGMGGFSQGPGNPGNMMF
Put plainly: proximity ligation.

For experiment [2], the target named is T2, BCL9 (full-length, control tumors) (mouse (endogenous in mouse tumors)) (UniProt Q9D219).
T2 sequence: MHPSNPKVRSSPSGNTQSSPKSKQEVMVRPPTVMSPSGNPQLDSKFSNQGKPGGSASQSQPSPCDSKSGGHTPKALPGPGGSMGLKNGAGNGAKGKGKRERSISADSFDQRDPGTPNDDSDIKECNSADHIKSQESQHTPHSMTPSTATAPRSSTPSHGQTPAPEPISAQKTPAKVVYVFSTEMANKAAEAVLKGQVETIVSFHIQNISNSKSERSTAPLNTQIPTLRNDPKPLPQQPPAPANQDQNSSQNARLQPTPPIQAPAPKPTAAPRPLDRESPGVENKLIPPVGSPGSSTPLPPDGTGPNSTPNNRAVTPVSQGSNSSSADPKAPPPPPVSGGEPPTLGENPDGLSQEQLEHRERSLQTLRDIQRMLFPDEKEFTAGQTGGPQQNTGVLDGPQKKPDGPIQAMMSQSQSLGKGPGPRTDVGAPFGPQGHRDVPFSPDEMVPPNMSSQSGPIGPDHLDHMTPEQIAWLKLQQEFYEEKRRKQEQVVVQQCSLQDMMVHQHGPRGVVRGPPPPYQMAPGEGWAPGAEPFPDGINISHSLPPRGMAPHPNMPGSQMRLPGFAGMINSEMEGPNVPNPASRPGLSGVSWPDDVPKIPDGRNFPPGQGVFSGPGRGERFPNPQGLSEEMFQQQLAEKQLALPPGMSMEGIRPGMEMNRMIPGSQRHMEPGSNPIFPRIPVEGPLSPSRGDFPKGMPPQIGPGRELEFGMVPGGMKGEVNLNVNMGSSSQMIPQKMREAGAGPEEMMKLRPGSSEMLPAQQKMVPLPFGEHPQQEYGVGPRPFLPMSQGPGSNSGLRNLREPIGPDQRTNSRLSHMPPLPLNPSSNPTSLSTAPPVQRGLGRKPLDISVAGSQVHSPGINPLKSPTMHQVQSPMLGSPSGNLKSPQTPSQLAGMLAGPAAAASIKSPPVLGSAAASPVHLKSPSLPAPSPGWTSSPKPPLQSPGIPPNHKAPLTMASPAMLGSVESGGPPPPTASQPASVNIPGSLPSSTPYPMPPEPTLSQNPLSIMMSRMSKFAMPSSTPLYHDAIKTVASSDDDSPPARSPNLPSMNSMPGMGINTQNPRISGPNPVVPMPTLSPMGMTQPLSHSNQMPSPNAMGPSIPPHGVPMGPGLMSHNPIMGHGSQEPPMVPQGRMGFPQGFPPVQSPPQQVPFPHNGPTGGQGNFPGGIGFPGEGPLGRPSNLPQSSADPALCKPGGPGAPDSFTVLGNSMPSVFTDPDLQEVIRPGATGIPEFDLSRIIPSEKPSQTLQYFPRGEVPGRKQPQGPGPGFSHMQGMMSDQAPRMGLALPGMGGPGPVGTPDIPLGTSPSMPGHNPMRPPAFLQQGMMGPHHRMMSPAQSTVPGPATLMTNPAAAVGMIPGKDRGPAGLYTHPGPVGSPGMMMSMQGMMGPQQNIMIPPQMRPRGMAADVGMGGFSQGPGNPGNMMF
The experiment is described as follows: co-IP.

Results are given in words; binding and its absence hold for the method and conditions named. In cells and extracts the contact can be indirect. Some binding calls cover weakened binding; strength is not graded here. For some assays here: Where a sequence is shown, tags or fusion partners need not be part of it.

B1: TBX3-3xflag (protein, UniProt O15119 1-743)
chain: MSLSMRDPVIPGTSMAYHPFLPHRAPDFAMSAVLGHQPPFFPALTLPPNGAAALSLPGALAKPIMDQLVGAAETGIPFSSLGPQAHLRPLKTMEPEEEVEDDPKVHLEAKELWDQFHKRGTEMVITKSGRRMFPPFKVRCSGLDKKAKYILLMDIIAADDCRYKFHNSRWMVAGKADPEMPKRMYIHPDSPATGEQWMSKVVTFHKLKLTNNISDKHGFTLAFPSDHATWQGNYSFGTQTILNSMHKYQPRFHIVRANDILKLPYSTFRTYLFPETEFIAVTAYQNDKITQLKIDNNPFAKGFRDTGNGRREKRKQLTLQSMRVFDERHKKENGTSDESSSEQAAFNCFAQASSPAASTVGTSNLKDLCPSEGESDAEAESKEEHGPEACDAAKISTTTSEEPCRDKGSPAVKAHLFAAERPRDSGRLDKASPDSRHSPATISSSTRGLGAEERRSPVREGTAPAKVEEARALPGKEAFAPLTVQTDAAAAHLAQGPLPGLGFAPGLAGQQFFNGHPLFLHPSQFAMGGAFSSMAAAGMGPLLATVSGASTGVSGLDSTAMASAAAAQGLSGASAATLPFHLQQHVLASQGLAMSPFGSLFPYPYTYMAAAAAASSAAASSSVHRHPFLNLNTMRPRLRYSPYSIPVPVPDGSSLLTTALPSMAAAAGPLDGKVAALAASPASVAVDSGSELNSRSSTLSSSSMSLSPKLCAEKEAATSELQSIQRLVSGLEAKPDRSRSASP
As to B1, the binding result in experiment [1] is “binds”.

B2: TBX3 (endogenous, mouse tumors) (protein, UniProt P70324 1-741)
chain: MSLSMRDPVIPGTSMAYHPFLPHRAPDFAMSAVLGHQPPFFPALTLPPNGAAALSLPGALAKPIMDQLVGAAETGIPFSSLGPQAHLRPLKTMEPEEDVEDDPKVHLEAKELWDQFHKRGTEMVITKSGRRMFPPFKVRCSGLDKKAKYILLMDIIAADDCRYKFHNSRWMVAGKADPEMPKRMYIHPDSPATGEQWMSKVVTFHKLKLTNNISDKHGFTLAFPSDHATWQGNYSFGTQTILNSMHKYQPRFHIVRANDILKLPYSTFRTYLFPETEFIAVTAYQNDKITQLKIDNNPFAKGFRDTGNGRREKRKQLTLQSMRVFEERHKKETSDESSSEQAAFNCFAQASSPAVSIVGTSNLKDLCPSEAESDAEAESKEEHGPEACDAAKISTTTAEEPGRDKGSPATRAQLFPAEPSRARDTARLDKASPDSRHSPATISSSTRVPGADERRSPGREGPVATKVDEARAIPAKDAFAPLSVQTDATAHLAQGPLPGLGFAPGLAGQQFFNGHPLFLHPGQFAMGGAFSSMAAGMGPLLATVSGASTGVSGLESTAMASAAAAQGLSGASAATLPFHLQQHVLASQGLAMSPFGSLFPYPYTYMAAAAAASTAAASSSVHRHPFLNLNSMRPRLRYSPYSIPVPVPDSSSLLATALPSMASAAGPLDGKAAALAASPASVAVDSGSELNSRSSTLSSGSVSLSPKLCSEKEAATSELQSIQRLVSGLEAKPDRSCSGSP
B2: the binding entry in experiment [2] is given as “binds”.
